Measured values from patent US20250381255A1.
Results are given in words; binding and its absence hold for the method and conditions named. Some entries that bind do so weakly or less than the wild type.

Amino acid sequences for entries named in this document (tags omitted). A change or cut given only in a name is not applied to a line headed by its entry.
UniProt P07306: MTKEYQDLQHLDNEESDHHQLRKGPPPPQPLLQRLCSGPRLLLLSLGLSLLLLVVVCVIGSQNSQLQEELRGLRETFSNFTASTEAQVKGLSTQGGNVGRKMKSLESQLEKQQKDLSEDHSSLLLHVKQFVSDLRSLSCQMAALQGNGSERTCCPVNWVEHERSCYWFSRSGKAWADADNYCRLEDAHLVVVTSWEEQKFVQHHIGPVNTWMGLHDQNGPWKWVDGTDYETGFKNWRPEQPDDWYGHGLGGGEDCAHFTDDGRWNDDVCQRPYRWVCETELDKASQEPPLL

Target: human asialoglycoprotein receptor 1 (ASGR1) extracellular domain (human) (UniProt P07306)
Experiment: pH and Ca2+ dependency by SPR (Biacore), BLI (Octet) and cell based assays

- binding: binds
B1: mAb-60881 (antibody, V domains shown)
VH: QVQLQESGPGLVKPSETLSLTCAVSGYSISSGYYWGWIRQPPGKGLEWIGSIYHSGSTYYNPSLKSRVTISVDTSKNQFSLKLSSVTAADTAVYYCAREAGYPERGYGMDVWGQGTTVTVSS
VL: EIVMTQSPATLSVSPGERATLSCRASQSVSSNLAWYQQKPGQAPRLLIYGASTRATGIPARFSGSGSGTEFTLTISSLQSEDFAVYYCQQYFHHPFTFGGGTKVEIK
